## Primary screen of a compound library

Protein sequences, listed by entry. Tags and fused reporters are not part of them.
UniProt E9BF75, entry or part of it: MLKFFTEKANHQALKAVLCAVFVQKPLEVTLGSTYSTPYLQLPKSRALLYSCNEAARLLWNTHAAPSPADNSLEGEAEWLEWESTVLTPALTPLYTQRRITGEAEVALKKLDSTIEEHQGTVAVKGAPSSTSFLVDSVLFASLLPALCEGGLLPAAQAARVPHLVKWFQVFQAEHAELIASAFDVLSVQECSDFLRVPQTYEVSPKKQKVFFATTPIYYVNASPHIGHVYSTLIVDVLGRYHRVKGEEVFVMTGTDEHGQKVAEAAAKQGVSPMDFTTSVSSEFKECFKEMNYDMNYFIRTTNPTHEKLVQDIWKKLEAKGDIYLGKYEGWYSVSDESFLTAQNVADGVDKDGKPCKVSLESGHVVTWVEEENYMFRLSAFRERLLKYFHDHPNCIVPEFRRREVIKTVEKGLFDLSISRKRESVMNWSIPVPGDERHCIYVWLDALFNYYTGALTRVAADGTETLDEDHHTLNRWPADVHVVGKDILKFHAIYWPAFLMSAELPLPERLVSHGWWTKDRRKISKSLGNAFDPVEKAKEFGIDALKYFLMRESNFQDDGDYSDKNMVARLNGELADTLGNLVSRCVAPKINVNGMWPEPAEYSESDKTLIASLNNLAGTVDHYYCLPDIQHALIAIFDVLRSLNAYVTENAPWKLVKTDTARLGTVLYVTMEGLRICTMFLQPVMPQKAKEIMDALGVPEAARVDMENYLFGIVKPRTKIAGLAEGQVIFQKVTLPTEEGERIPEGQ

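Primary screen of methionyl-tRNA synthetase; the read-out is not stated. Target: Methionyl-tRNA synthetase (putative), Leishmania donovani (UniProt E9BF75). The test concentration is not given. The values are filed as inhibition. About 68,000 compounds were tested under these conditions; 0.035% (about 24) showed 50% or more at least once.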

All values are in %. The record does not define 0% and 100%; most values in the screen are far below 50% and negative numbers occur (in some assays of this library far below -100). Compounds were drawn at random from those tested, without regard to their results.

Compound | Inhibition
CCOCCN1CCN(Cc2nc(C3CC3)no2)CC1CC (centres undefined) | 5.419%
Cc1cc(C)n(C2CCCN(C(=O)CCCNc3ncccn3)C2)n1 (centres undefined) | 14.58%
CC(C)NC(=O)N1CCC2(CC(=O)N(c3ccccc3)C2)C1 (centres undefined) | 3.922%
Cc1ccc(C2CCCN2S(=O)(=O)N(C)CCc2ccccn2)o1 (centres undefined) | 9.206%
Cc1[nH]ncc1C(=O)N1CCCC(c2cc(C(F)(F)F)[nH]n2)C1 (centres undefined) | 8.571%
CSCc1ccc(C(=O)N2CCN(CC(C)O)CC2)cc1 (centres undefined) | 14.81%
CS(=O)(=O)c1cn[nH]c1C1CCCN1C(=O)c1cccnc1 (centres undefined) | 12.22%
Cc1nc(CN(C)C2CCN(Cc3ccno3)C2)no1 (centres undefined) | 6.944%
CN(C)C[C@H]1OC[C@@H]2CCN(C(=O)Cc3cccs3)C[C@@H]21 | 13.14%
CC(=O)N[C@@H]1CN(C(=O)Cc2coc3cc(C)ccc23)C[C@H]1O | 7.979%
CCCN1C[C@H](NC(=O)c2cc(C)no2)[C@@H](c2ccc(OC)cc2)C1 | 19.29%
CN(C)C(=O)N1CCC2(CC(=O)N(c3ccc4c(c3)OCO4)C2)C1 (centres undefined) | 17.79%
Oc1ccc(-c2c(-c3ccccc3)ncn2C[C@H]2CCCN2)cc1 | 20.14%
c1csc(CN2CC[C@H]3C[C@H](c4ccncn4)O[C@@H]3C2)c1 | 11.76%
CCn1c(Cn2cncn2)nnc1C1CCN(C(=O)CCSC)CC1 | 17.47%
CCn1nccc1CN(C)c1[nH]cnc2nc(C)nc1-2 | 12.91%
N#Cc1ccc(NCc2cc3n(n2)CCCN(C(=O)C2CCC2)C3)nc1 | 17.18%
Cc1ccc(CN2CCn3cc(CNC(=O)c4cnn(C)c4)nc3C2)s1 | 6.587%
Cc1nc(C2CCCN2Cc2ccn(C)c(=O)c2)no1 (centres undefined) | 7.731%
Cc1cccc(CC(=O)N2CCCCC2CN)c1 (centres undefined) | 19.83%
O=C(c1cnccn1)N1C[C@@H](OCc2ccncc2)[C@@H]2OCCC[C@@H]21 | -1.441%
N#Cc1ccc(OC2CCN(C(=O)Cc3cccs3)CC2)nc1 | 10.14%
CC(C)CCC(C)NC(=O)Nc1ccccn1 (centres undefined) | 9.041%
CC(C)=CCCC(C)(O)c1cc(C(N)=O)no1 (centres undefined) | 11.27%
Nc1nc2c(c(=O)[nH]1)CCN(C(=O)c1ccccc1N1CCCC1)C2 | 8.992%
CC(C)OCCCN(Cc1ccncc1)Cc1cccc(F)c1 | 15.43%
COc1ccc(-c2ccc(C(=O)NS(C)(=O)=O)c(F)c2)cc1 | 23.37%
CC(C)(C)C(=O)N1C[C@@H](F)[C@@H](OCc2nc3ncccc3[nH]2)C1 | 11.19%
CCOCC1CC2(CCN(C(=O)c3ccc4ccccc4n3)CC2)CO1 (centres undefined) | 5.229%
CC(C)(C)n1cc(C2=CCN(CCN3CCCCCC3)CC2)cn1 | 21.35%
N#CC1(C(=O)N2CCOC(c3ccc(Cl)cc3)C2)CCCC1 (centres undefined) | 6.178%
CCC(=O)N1CCCCC1c1nc(O)c2c(n1)CN(S(C)(=O)=O)CC2 (centres undefined) | 0.6231%
NC(=O)[C@@H]1Cc2ccccc2CN1CCC(=O)N1CCOCC1 | 10.57%
CS(=O)(=O)NCC1CCCN(c2ccc(C(F)(F)F)cn2)C1 (centres undefined) | 0.2597%
O=C(CN1CCCC1c1cccs1)N1CCc2sccc2C1 (centres undefined) | 24.23%
Cc1cnn(C2CCCN(C(=O)CCc3nccs3)C2)c1 (centres undefined) | 1.307%
CCN(C)C1COC2(CCN(C(=O)c3ccc(Cl)cc3)CC2)C1 (centres undefined) | 11.11%
COCC(=O)NCC[C@H]1CC(C)(C)Oc2ccc(OC)cc21 | 7.524%
CC(C)Nc1nc2c(cc1C(=O)NCC1CC1)CCN(S(C)(=O)=O)CC2 | 11.29%
Cc1c(CNS(=O)(=O)c2cccc(COC(C)C)c2)cnn1C | 19.55%
O=C(O)c1ccccc1-c1ccc(Cn2c(=O)cc[nH]c2=O)cc1 | 6.915%
O=C(C1CC1)N1CC2(CCNCC2)C1 | 7.222%
CCCn1ncc(-c2ccnc(NC3CCCc4ccccc43)n2)c1C (centres undefined) | 27.78%
CCC(CO)N(Cc1cccnc1)C(=O)c1ccoc1C (centres undefined) | 20.41%
CC(C)n1ccc2cc(C(=O)Nc3nc[nH]n3)ccc21 | 17.49%
O=C(c1ccc2c(c1)CCO2)N1CCN(c2ccc(Cl)cn2)CC1 | 13.04%

Some entries from above, unchanged:

* CCOCC1CC2(CCN(C(=O)c3ccc4ccccc4n3)CC2)CO1 (centres undefined) | 5.229%
* COc1ccc(-c2ccc(C(=O)NS(C)(=O)=O)c(F)c2)cc1 | 23.37%
* CSCc1ccc(C(=O)N2CCN(CC(C)O)CC2)cc1 (centres undefined) | 14.81%
* Oc1ccc(-c2c(-c3ccccc3)ncn2C[C@H]2CCCN2)cc1 | 20.14%

Source: ChEMBL document CHEMBL3988442, “University of Dundee, Small-Polar-MMV Screening Library” (2021).